Reference: PubChem BioAssay AID256 (DTP/NCI, 2004)
The list is a part of this screen's results and no random one: it is rich in T/C values a quarter to a half above the control, in often repeated tests (any T/C) and in doses without a T/C. Further doses and runs are listed elsewhere. T/C gives the treated animals as a percentage of the vehicle group. Some entries give survivors of the animals treated and no T/C: the source holds a T/C of zero for them, seemingly a mark for toxic or unscored doses. Some doses without a T/C left all or most animals alive at the check, yet need not have been tolerated: survival well below the control is almost never listed, so the zero probably covers shortened survival too. Counts of survivors are from the toxicity check (mostly the fifth day) where no day follows; animals may have died later. Schedule codes are those of the source, read here as Q, the interval in days (D) or hours (H), X, the number of doses. Some entries hold several experiments; the values are given in rising order. Where survival is the endpoint, the PubChem record calls one and a half times the control and up active, and a quarter to a half above the control has no call in these data; cut-offs in other NCI protocols can differ. Brackets with × count equal records among those shown. Some T/C values carry the count of animals alive at the toxicity check (mostly the fifth day); without a count, all were alive then.

Tested on: CD2F1 mice, L1210 leukemia ip, survival T/C
Test: NCI In Vivo Anticancer Drug Screen. Data for tumor model L1210 Leukemia (intraperitoneal) in CD2F1 (CDF1) mice
Conditions: higher T/C = longer survival
Procedure, shortened: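 Tumor-bearing mice (transplanted tumor) were split into treated and vehicle control groups, and the measured endpoint of each treated group was divided by that of its vehicle controls.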

[1] = T/C endpoint: mean survival time, dose: 200.0 mg/kg/injection, schedule: Q01DX009 (ip), vehicle: Klucel (hydroxypropylcellulose) (HPC)
[2] = T/C endpoint: mean survival time, dose: 400.0 mg/kg/injection, schedule: Q01DX009 (ip), vehicle: Klucel (hydroxypropylcellulose) (HPC)
[3] = T/C endpoint: mean survival time, dose: 100.0 mg/kg/injection, schedule: Q01DX009 (ip), vehicle: saline with Tween-80
[4] = T/C endpoint: mean survival time, dose: 400.0 mg/kg/injection, schedule: Q01DX009 (ip), vehicle: saline with Tween-80
[5] = T/C endpoint: mean survival time, dose: 200.0 mg/kg/injection, schedule: Q04DX003 (ip), vehicle: saline with Tween-80
[6] = T/C endpoint: mean survival time, dose: 400.0 mg/kg/injection, schedule: Q04DX003 (ip), vehicle: saline with Tween-80
[7] = T/C endpoint: mean survival time, dose: 100.0 mg/kg/injection, schedule: Q01DX001 (ip), vehicle: saline with Tween-80
[8] = T/C endpoint: mean survival time, dose: 200.0 mg/kg/injection, schedule: Q01DX001 (ip), vehicle: saline with Tween-80
[9] = T/C endpoint: mean survival time, dose: 400.0 mg/kg/injection, schedule: Q01DX001 (ip), vehicle: saline with Tween-80
[10] = T/C endpoint: mean survival time, dose: 400.0 mg/kg/injection, schedule: Q04DX002 (ip), vehicle: saline with Tween-80
[11] = T/C endpoint: mean survival time, dose: 300.0 mg/kg/injection, schedule: Q01DX001 (ip), vehicle: saline
[12] = T/C endpoint: mean survival time, dose: 200.0 mg/kg/injection, schedule: Q01DX009 (ip), vehicle: saline with Tween-80

O=c1[nH]cnc2n[nH]nc12
T/C (T/C endpoint: mean survival time, dose: 12.5 mg/kg/injection, schedule: Q01DX009 (ip), vehicle: Klucel (hydroxypropylcellulose) (HPC)): 125 % of control | T/C (T/C endpoint: mean survival time, dose: 25.0 mg/kg/injection, schedule: Q01DX009 (ip), vehicle: Klucel (hydroxypropylcellulose) (HPC)): 128 % of control | T/C (T/C endpoint: mean survival time, dose: 50.0 mg/kg/injection, schedule: Q01DX009 (ip), vehicle: Klucel (hydroxypropylcellulose) (HPC)): 130 [5 of 6 alive] and 133 % of control | T/C (T/C endpoint: mean survival time, dose: 100.0 mg/kg/injection, schedule: Q01DX009 (ip), vehicle: Klucel (hydroxypropylcellulose) (HPC)): 133 and 145 % of control | T/C [1]: 136 and 145 % of control | T/C [2]: 146 and 148 % of control

CCCCCOC(=S)S
survivor count (T/C endpoint: mean survival time, dose: 18.75 mg/kg/injection, schedule: Q04DX003 (ip), vehicle: Klucel (hydroxypropylcellulose) (HPC)): 6 of 6 | survivor count (T/C endpoint: mean survival time, dose: 75.0 mg/kg/injection, schedule: Q04DX003 (ip), vehicle: saline sonified): 6 of 6 | survivor count (T/C endpoint: mean survival time, dose: 150.0 mg/kg/injection, schedule: Q04DX003 (ip), vehicle: saline sonified): 1 of 6 | survivor count (T/C endpoint: mean survival time, dose: 300.0 mg/kg/injection, schedule: Q04DX003 (ip), vehicle: saline sonified): 0 of 6

O=C1NC(c2ccccc2)N=C2Oc3ccccc3C=C12 (configuration not stated)
T/C (T/C endpoint: mean survival time, dose: 12.5 mg/kg/injection, schedule: Q01DX009 (ip), vehicle: saline with Tween-80): 97 (2×), 98, 104 % of control | T/C (T/C endpoint: mean survival time, dose: 25.0 mg/kg/injection, schedule: Q01DX009 (ip), vehicle: saline with Tween-80): 95, 105 (2×), 119 % of control | T/C (T/C endpoint: mean survival time, dose: 50.0 mg/kg/injection, schedule: Q01DX009 (ip), vehicle: saline with Tween-80): 93, 98, 101, 127 % of control | survivor count [3]: 2 of 6 and 6 of 6

O=CO.[Co]
survivor count (T/C endpoint: mean survival time, dose: 80.0 mg/kg/injection, schedule: Q01DX001 (ip), vehicle: saline): 3 of 6

CSc1nnnn1-c1ccccc1
survivor count [1]: 0 of 6

CCCCC(C)(O)CC (configuration not stated)
survivor count [4]: 1 of 6

COc1cc(C)c(O)c(C[P+](c2ccccc2)(c2ccccc2)c2ccccc2)c1
survivor count [3]: 0 of 6 | survivor count [5]: 0 of 6 and 1 of 6 | survivor count [6]: 0 of 6

COC(=O)/C(=C\c1ccccc1)CN1CCCCC1
survivor count [7]: 0 of 3 | survivor count [8]: 0 of 3 | survivor count [9]: 0 of 3

ClC1C(Cl)C(Cl)C(Cl)C(Cl)C1Cl (configuration not stated)
survivor count (T/C endpoint: mean survival time, dose: 400.0 mg/kg/injection, schedule: Q01DX009 (ip), vehicle: other): 4 of 6

O=C(NO)c1cc(Br)cc(Br)c1O
survivor count (T/C endpoint: mean survival time, dose: 800.0 mg/kg/injection, schedule: Q04DX002 (ip), vehicle: saline with Tween-80): 0 of 3

Cc1cc(O)c2c(c1O)C(=O)c1cccc(O)c1C2=O
survivor count (T/C endpoint: mean survival time, dose: 12.0 mg/kg/injection, schedule: Q01DX009 (ip), vehicle: Klucel (hydroxypropylcellulose) (HPC)): 3 of 6

N#CCSc1ncnc2nc[nH]c12
T/C (T/C endpoint: mean survival time, dose: 60.0 mg/kg/injection, schedule: Q01DX009 (ip), vehicle: saline): 126 % of control | survivor count (T/C endpoint: mean survival time, dose: 120.0 mg/kg/injection, schedule: Q01DX009 (ip), vehicle: saline): 3 of 6 | survivor count (T/C endpoint: median survival time, dose: 120.0 mg/kg/injection, schedule: Q01DX009 (ip), vehicle: saline): 3 of 6 | survivor count (T/C endpoint: median survival time, dose: 240.0 mg/kg/injection, schedule: Q01DX009 (ip), vehicle: saline): 0 of 6

NCCNCCNCCNCCN (tested in a mixture with another compound)
survivor count (T/C endpoint: mean survival time, dose: 200.0 mg/kg/injection, schedule: Q01DX009 (ip), vehicle: saline): 2 of 6 | survivor count [6]: 0 of 6

[O-]c1cc2c3c(c1)c1cc4c(cc1c[n+]3C=C2)OCO4
T/C (T/C endpoint: mean survival time, dose: 12.5 mg/kg/injection, schedule: Q01DX009 (ip), vehicle: water): 132 % of control | T/C (T/C endpoint: mean survival time, dose: 25.0 mg/kg/injection, schedule: Q01DX009 (ip), vehicle: water): 134 % of control | survivor count (T/C endpoint: mean survival time, dose: 50.0 mg/kg/injection, schedule: Q01DX009 (ip), vehicle: other): 4 of 6 | T/C (T/C endpoint: mean survival time, dose: 50.0 mg/kg/injection, schedule: Q01DX009 (ip), vehicle: water): 130 % of control | survivor count (T/C endpoint: mean survival time, dose: 100.0 mg/kg/injection, schedule: Q01DX009 (ip), vehicle: other): 5 of 6 | survivor count (T/C endpoint: mean survival time, dose: 100.0 mg/kg/injection, schedule: Q01DX009 (ip), vehicle: water): 2 of 6

Nc1c(Cl)c(Cl)nc(C(=O)O)c1Cl
survivor count [2]: 1 of 6

O=C1OC(=O)C2C3OC(C4CN=NC43)C12 (configuration not stated)
survivor count [10]: 1 of 3

O=C(C[n+]1cc2ccccc2cc1/C=N/O)c1ccccc1
survivor count [6]: 2 of 6

CCC(C)CNCCO (configuration not stated)
survivor count (T/C endpoint: mean survival time, dose: 400.0 mg/kg/injection, schedule: Q04DX003 (ip), vehicle: saline): 2 of 6

CC(C)CC(C)NCCO (configuration not stated)
survivor count [11]: 0 of 6

CS(=O)(=O)c1cc(C(F)(F)F)cc([N+](=O)[O-])c1Cl
survivor count [12]: 3 of 6 | survivor count [6]: 4 of 6

c1ccc(C[n+]2ccccc2)cc1
survivor count [3]: 0 of 3 | survivor count [12]: 0 of 3

CCOC(=O)C(CCC(O)C#N)(CC(C)=O)C(=O)OCC (configuration not stated)
survivor count (T/C endpoint: mean survival time, dose: 150.0 mg/kg/injection, schedule: Q01DX001 (ip), vehicle: saline): 0 of 6 | survivor count [11]: 0 of 6

O=CNc1cccc2ccc3c4ccccc4ccc3c12
survivor count [5]: 6 of 6

Nc1cccc2ccc(S(=O)(=O)O)cc12
survivor count [4]: 3 of 6

COc1ccc2c(c1OC)CC1N(S(=O)(=O)c3ccc(C)cc3)CCC13c1ccccc1N(C(C)=O)C23 (configuration not stated)
survivor count (T/C endpoint: mean survival time, dose: 75.0 mg/kg/injection, schedule: Q01DX001 (ip), vehicle: other): 6 of 6

Nc1cc(OCc2ccccc2)c2n[nH]nc2n1
survivor count (T/C endpoint: mean survival time, dose: 100.0 mg/kg/injection, schedule: Q01DX005 (ip), vehicle: other): 3 of 3

c1ccc(C2=C(c3ccccc3)OC(c3ccccc3)=C(c3ccccc3)O2)cc1
survivor count [8]: 6 of 6

CC(=O)OC1COC(n2c(=S)n(-c3ccccc3)c(=N)c3ccccc32)C(OC(C)=O)C1OC(C)=O (configuration not stated)
survivor count (T/C endpoint: mean survival time, dose: 100.0 mg/kg/injection, schedule: Q01DX005 (ip), vehicle: distilled water + Tween-80): 6 of 6

O=c1nc2c(ncn2C2OC(CO)C(O)C2O)c(NCCc2ccccc2)[nH]1 (configuration not stated)
T/C (T/C endpoint: mean survival time, dose: 200.0 mg/kg/injection, schedule: Q01DX005 (ip), vehicle: water): 125 % of control [5 of 6 alive]

[O-][n+]1c(CN2CCCCC2)nc2cccc3c2c1-c1ccccc1-3
survivor count [4]: 3 of 6

CCCCCC(CN(C)C)C(=O)/C=C\c1ccc(Cl)cc1Cl (configuration not stated)
survivor count (T/C endpoint: mean survival time, dose: 50.0 mg/kg/injection, schedule: Q01DX009 (ip), vehicle: alcohol): 5 of 6

O=C1OCCCC1O (configuration not stated)
survivor count (T/C endpoint: mean survival time, dose: 75.0 mg/kg/injection, schedule: Q01DX001 (ip), vehicle: saline): 6 of 6 | survivor count [11]: 3 of 6

Nc1ncnc2c1ncn2C1CC(CO)C(O)OC1O (configuration not stated)
T/C (T/C endpoint: mean survival time, dose: 100.0 mg/kg/injection, schedule: Q04DX002 (ip), vehicle: saline with Tween-80): 137 % of control | T/C (T/C endpoint: mean survival time, dose: 200.0 mg/kg/injection, schedule: Q04DX002 (ip), vehicle: saline with Tween-80): 147 % of control [2 of 3 alive] | survivor count [10]: 0 of 3

CC1(C)N=C(N)N=C(N)N1c1cccc(CCCCc2ccc(S(=O)(=O)F)cc2Cl)c1
survivor count (T/C endpoint: mean survival time, dose: 50.0 mg/kg/injection, schedule: Q01DX009 (ip), vehicle: saline sonified): 3 of 6 | survivor count (T/C endpoint: mean survival time, dose: 100.0 mg/kg/injection, schedule: Q04DX003 (ip), vehicle: saline sonified): 4 of 6 | survivor count (T/C endpoint: mean survival time, dose: 200.0 mg/kg/injection, schedule: Q04DX003 (ip), vehicle: saline sonified): 1 of 6 | survivor count (T/C endpoint: mean survival time, dose: 400.0 mg/kg/injection, schedule: Q04DX003 (ip), vehicle: saline sonified): 0 of 6

Ic1sc(I)c(I)c1I
survivor count [7]: 0 of 3 | survivor count [8]: 1 of 3 | survivor count [9]: 0 of 3

Oc1cccc2c1NCCC2
survivor count [5]: 3 of 6 | survivor count [6]: 0 of 6
